From paper PMC5458512 come the findings set out here.

This assay addresses T1, Argonaute (Ago1), endogenous 3xFLAG-tagged (S. pombe) (UniProt O74957).
T1 sequence: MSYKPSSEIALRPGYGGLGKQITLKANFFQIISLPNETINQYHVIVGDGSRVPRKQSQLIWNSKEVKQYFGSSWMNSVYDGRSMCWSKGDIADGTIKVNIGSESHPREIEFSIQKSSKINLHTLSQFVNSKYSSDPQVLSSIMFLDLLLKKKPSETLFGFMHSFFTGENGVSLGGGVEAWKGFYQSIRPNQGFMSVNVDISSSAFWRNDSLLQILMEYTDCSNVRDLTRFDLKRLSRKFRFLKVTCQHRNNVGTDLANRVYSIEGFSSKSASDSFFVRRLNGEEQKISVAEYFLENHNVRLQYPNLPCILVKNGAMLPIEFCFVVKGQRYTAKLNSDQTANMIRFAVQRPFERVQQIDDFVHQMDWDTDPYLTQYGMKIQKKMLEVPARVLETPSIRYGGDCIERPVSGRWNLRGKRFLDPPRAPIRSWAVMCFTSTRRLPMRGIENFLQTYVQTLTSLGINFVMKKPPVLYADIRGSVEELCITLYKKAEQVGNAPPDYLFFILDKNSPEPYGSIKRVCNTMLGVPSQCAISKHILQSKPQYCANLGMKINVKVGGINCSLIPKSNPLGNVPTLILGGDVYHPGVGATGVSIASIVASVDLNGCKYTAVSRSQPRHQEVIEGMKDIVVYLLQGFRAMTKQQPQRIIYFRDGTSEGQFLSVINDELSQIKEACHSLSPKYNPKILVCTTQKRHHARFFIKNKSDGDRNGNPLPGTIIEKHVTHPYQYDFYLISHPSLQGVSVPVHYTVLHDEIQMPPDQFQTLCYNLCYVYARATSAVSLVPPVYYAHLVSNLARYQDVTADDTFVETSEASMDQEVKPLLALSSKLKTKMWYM
Kind of assay: co-IP; Flag immunoprecipitation (Flag-M2 affinity gel) of Ago1 from S. pombe lysate in low salt (50 mM HEPES pH 7.5, 100 mM NaOAc, 5 mM MgCl2, 2 mM EDTA, 2 mM EGTA, 0.1% Nonidet P-40, 20% glycerol), 4 °C; immunoblot with anti-HA and anti-FLAG.

Results are given in words; binding and its absence hold for the method and conditions named. Binding seen in cells or lysates may run through a third protein. Some entries that bind do so weakly or less than the wild type. Tags and fused reporters may be left off the sequences shown.

B1: Cid14, endogenously C-terminally 3xHA-tagged (enzyme, UniProt Q9UTN3 1-684)
chain: MGKKSVSFNRNNYKKRKNERTEPLPRRIFKNDKPSKFKSKRKEKDKNSDAYDEMLLNNNFTLLDQEEPMVEIGSKKSRNDNDSEGIRDKGGVEISNKNDPYIQFGKADPLEPLEKPDLPEEAIKRGEPTILLGIPKREGRKTNPVHDKAVENNSDFIKFDWNSDEDEDSVSNDKSKNNESLKKSSKNEIPGFMRQRGRFFHEANEKSDSNRKRKRQAYELDSQSCPWHRQYKVEREVSRIFHQDILHFIDYITPTPEEHAVRKTLVSRINQAVLQKWPDVSLYVFGSFETKLYLPTSDLDLVIISPEHHYRGTKKDMFVLAHHLKKLKLASEVQVITTANVPIIKFVDPLTKVHVDISFNQPGGLKTCLVVNGFMKKYPALRPLVIIIKHFLNMRALNEVFLGGLSSYAIVCLVVSFLQLHPRLSTGSMREEDNFGVLLLEFLELYGKQFYYDAVGIAVHNGGFYFSKKKMGWLKPNQPYLLSIQDPVDFQNDVSKSSRGLLRVKATFANGFDLLTSKLYALASRIEREGVNRVKDFPSILSTILSVDEGVRQHREHMLKCYKNNPVPLEPLVEVDALASIDVDKLPLQDVGLQYVEDESDSDETDAAKDDLFKVNESIETNGHENFQKQALTSTGEQSSSNSRANPSKLFNISSDDSEDEVPIIEDTTASDEESRAKKIRKRF
As to B1, the binding result was “binds”.
